Test results reported in PMC9688159 (Cancers, 2022).

How the values were obtained:
Assay in all cases: cell viability (MTS)
Type in all cases: cell-based
Capan-1 cells = settings: Homo sapiens
Excerpt: (§1) Pancreatic carcinoma cell lines, PANC-1 (ACC 783), BxPC-3 (ACC 760), and Capan-1 (ACC 244), were obtained from DSMZ (Braunschweig, Germany). Normal human fibroblasts (NHF; 106-05A) were purchased from Sigma-Aldrich (Poznan, Poland). PANC-1 and NHF cells were maintained in DMEM containing 10% fetal bovine serum (FBS) and 1% antibiotic solution. BxPC-3 and Capan-1 cells were maintained in […] with 15% FBS and 1% penicillin/streptomycin solution. Cells were regularly tested for mycoplasma contamination.
(§2) In all experiments, cells were seeded in 96-well plates at a density of 4 × 10^3 (PANC-1, BxPC-3), 5 × 10^3 (Capan-1), and 2 × 10^3 (NHF) cells per well. Plates were incubated for 24 h at 37 °C.
(§3) To evaluate the effect of each compound on cell viability, cells were treated with different concentrations (0–60 µM) of tested compounds for 24, 48, and 72 h. Next, 20 µL of MTS solution was added to each well. Plates were incubated for 2 h at 37 °C. The absorbance was measured at 490 nm. Untreated cells served as a negative control. The number of viable cells is directly proportional to the intensity of color produced. Cell viability is expressed as a percentage of control cells.
(§4) To evaluate the activity of the compounds after blocking DRD2, cells were incubated with risperidone (10 µM) for 2 h at 37 °C. Next, the medium was removed and a fresh medium containing tested compounds (at a concentration of 0–60 µM) was added. Plates were incubated for a further 24 h. Next, 20 µL of MTS solution was added to each well, and incubation was started (for 2 h at 37 °C). The absorbance was measured at 490 nm. Untreated cells served as a negative control.

[1] = test system: normal human fibroblasts (NHF); settings: Fibroblast
Excerpt: as §1, §2, §3, §4

PANC-1 cells = settings: Homo sapiens
Excerpt: as §1, §2, §3, §4

BxPC-3 cells = settings: Homo sapiens
Excerpt: as §1, §2, §3, §4

Measured: IC50

Cc1nc2n(c(=O)c1CCN1CCC(c3noc4cc(F)ccc34)CC1)CCCC2 [Risperidone]
> 60 µM: Capan-1 cells; CAPAN-1, 24 h | Capan-1 cells; CAPAN-1, 48 h | Capan-1 cells; CAPAN-1, 72 h | [1]; 24 h | [1]; 48 h | [1]; 72 h | PANC-1 cells; PANC-1, 24 h | PANC-1 cells; PANC-1, 48 h | PANC-1 cells; PANC-1, 72 h | BxPC-3 cells; BXPC-3, 24 h | BxPC-3 cells; BXPC-3, 48 h | BxPC-3 cells; BXPC-3, 72 h
